Measurements: patent US20080312167A1, “4'' Amino Linked Macrolides Useful for the Treatment of Microbial Infections” (priority 2005, published 2008)
Some entries share one result that the patent states for a list of compounds.

Columns and labels:
Experiment in all cases: MIC, standard broth dilution method in microtitre
Assay type in all cases: cell-based
[1] = tested on: Moraxella catarrhalis
Procedure: (§1) Using a standard broth dilution method in microtitre, compounds were tested for antibacterial activity.
(§2) The MIC (μg/ml) of test compounds against various organisms was determined including: Staphylococcus aureus, Streptococcus pneumoniae, Streptococcus pyogenes, Enterococcus faecalis, Haemophylus influenzae, Moraxella catarrhalis.

[2] = tested on: sensitive Staphylococcus aureus
Procedure: as §1, §2

[3] = tested on: Enterococcus faecalis
Procedure: as §1, §2

Substance: 4″(R)—N-(3-{2-[2-(3-Carboxy-7-chloro-1-cyclopropyl-4-oxo-1,4-dihydro-quinolin-6-ylamino)-ethoxy]-ethoxy}-propionyl}-azithromycin [Example 2]
- MIC [1]: ≤ 2 µg/mL

Substance: 4″(S)—N-(3-{2-[2-(3-Carboxy-7-chloro-1-cyclopropyl-4-oxo-1,4-dihydro-quinolin-6-ylamino)-ethoxy]-ethoxy}-propionyl}-azithromycin [Example 3]
- MIC [2]: ≤ 0.5 µg/mL
- MIC [3]: ≤ 0.125 µg/mL
- MIC [1]: ≤ 2 µg/mL
